Measurements reported in PubChem BioAssay AID1159578 (Peter MacCallum Cancer Centre, 2015)

Assay: 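Knock-downs that alter how fast lymphatic endothelial cells migrate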 (primary screen)
System: human lymphatic endothelial cells
Reagents: siRNA pool against human genes, 40 nM
Duration: 48 h after transfection
Measured: 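Cells stained with dye and imaged after a scratch; covered wound area and nuclei counted, duplicates averaged, migration set against mock wells and turned into a robust z-score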
Direction: migration robust z-score: higher = faster migration into the scratch; nuclei per well: higher = more cells in the well
Rule for the call: 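Pools averaging fewer than 3300 nuclei are never called; remaining pools count as changed when migration robust z lies outside -2 to 2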
Meaning of the calls: active = migration changed; inactive = no migration change, or too few cells
The whole screen tested about 18,000 reagents; below is an unselected part. In the full data, about 1,030 (5.7%) got an active call. 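Inactive calls also include pools with fewer than 3300 nuclei, whose migration was not assessed.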 Raw values are not corrected between plates. Not all columns of the deposit are shown.

FRYL gave migration robust z-score -0.89; nuclei per well, duplicate mean 6240; inactive.
Depletion of SEMA4G resulted in: migration robust z-score 0.18; nuclei per well, duplicate mean 4970; inactive.
Depletion of VPS33A came out at: migration robust z-score 0.96; nuclei per well, duplicate mean 5810; inactive.
GUCY1B1 gave migration robust z-score -1.71; nuclei per well, duplicate mean 4704; inactive.
OR14I1 showed migration robust z-score 0.75; nuclei per well, duplicate mean 5017; inactive.
KRT85 scored migration robust z-score -0.19; nuclei per well, duplicate mean 7605; inactive.
CEP85L scored migration robust z-score -1.25; nuclei per well, duplicate mean 5640; inactive.

2 neighbouring records from above:
GUCY1B1: migration robust z-score = -1.71; nuclei per well, duplicate mean = 4704; outcome = inactive
OR14I1: migration robust z-score = 0.75; nuclei per well, duplicate mean = 5017; outcome = inactive

Further entries:
For CRTC1, the values are migration robust z-score -0.31; nuclei per well, duplicate mean 5444; inactive.
For RAG1, the entry reads migration robust z-score -0.36; nuclei per well, duplicate mean 5194; inactive.
After knock-down of BRMS1 the results were migration robust z-score 0.72; nuclei per well, duplicate mean 6470; inactive.
DUSP23 scored migration robust z-score -1.01; nuclei per well, duplicate mean 4708; inactive.
SERPINB3 showed migration robust z-score -0.5; nuclei per well, duplicate mean 5692; inactive.
For NAA50, the entry reads migration robust z-score 0.17; nuclei per well, duplicate mean 5993; inactive.
Silencing of SPAG11A came out at: migration robust z-score 0.26; nuclei per well, duplicate mean 5382; inactive.
